Values from PubChem BioAssay AID1259308 (NCATS, 2017)
Purpose: 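Knock-downs that increase output of a recombinant reporter protein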 (primary screen). Cells: human HEK293 embryonic kidney cells stably expressing firefly luciferase (HEK-CMV-Luc2-Hygro). Reagents: single siRNA against human genes, 0.8 pmol siRNA per well. Time to read-out: 72 h. Measured: 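Reporter luminescence and viable-cell signal on separate replicate plates, given as percent of non-targeting control and median/MAD z-scores, plus per-cell luciferase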. Reading the numbers: total luciferase, z-score and total luciferase, % of control: higher = more reporter protein produced; luciferase per cell, z-score: higher = more reporter output per viable cell; viable cells, % of control: higher = more viable cells. Active means: 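Active when the median/MAD z-score for overall luciferase is greater than 3; a gene was taken forward for validation with new siRNAs if at least two of its three siRNAs passed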. Calls: active = raised luciferase; inactive = no rise.
Shown is an unselected part of about 59,000 reagents tested. About 1,510 of them (2.6%) count as active. 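Calls use total luciferase alone and ignore viability, so some active siRNAs may act by altering cell number.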 Reagent sequences are not shown.

Gene	PubChem SID	total luciferase, z-score	total luciferase, % of control	luciferase per cell, z-score	viable cells, % of control	Outcome
BORA	SID160749642	-0.201	77.9	0.22	82.2	inactive
BORA	SID160749644	-0.0477	80.9	-0.265	97	inactive
BORA	SID160749645	-0.947	63	-0.64	83.4	inactive
HOXB2	SID160775192	-0.65	69	-0.306	83.5	inactive
HOXB2	SID160775193	-0.146	79	-0.00926	88.5	inactive
HOXB2	SID160775194	-0.055	80.8	-0.479	102	inactive
CDC42P6	SID160733840	3.26	147	3.2	70.6	active
CDC42P6	SID160768983	0.246	86.8	1.33	68.2	inactive
CDC42P6	SID160768984	1.98	121	2.03	79.4	inactive
SMCR8	SID160757891	0.222	86.3	0.695	80.3	inactive
SMCR8	SID160757892	1.18	105	0.674	98.6	inactive
SMCR8	SID160757893	1.21	106	1.53	79.3	inactive
PGRMC2	SID160775450	1.29	108	1.13	89.3	inactive
PGRMC2	SID160775460	0.983	101	0.6	96.8	inactive
PGRMC2	SID160775471	0.162	85.1	0.0266	94.4	inactive
LOC100288914	SID160771949	-0.0741	80.4	-0.17	94	inactive
LOC100288914	SID160771951	-0.0897	80.1	0.385	80.9	inactive
LOC100288914	SID160771952	-1.8	46	-0.646	61	inactive
UBE2J2	SID160755610	0.116	84.2	-0.534	108	inactive
UBE2J2	SID160755612	0.137	84.6	0.148	90.9	inactive
UBE2J2	SID160755613	-1.16	58.8	0.355	59.9	inactive
ATP5IF1	SID160754560	-0.0446	81	-0.46	102	inactive
ATP5IF1	SID160754561	-0.188	78.1	-0.476	99	inactive
ATP5IF1	SID160754562	0.103	83.9	-0.141	97.3	inactive
VPS26B	SID160754758	-0.749	67	-0.95	96.1	inactive
VPS26B	SID160754759	-0.772	66.5	-0.653	88.3	inactive
VPS26B	SID160754760	-0.277	76.4	-0.395	94.7	inactive
KRT14	SID160776412	-0.362	74.7	-0.398	92.7	inactive
KRT14	SID160776413	-0.959	62.8	-1.5	104	inactive
KRT14	SID160776414	-0.821	65.6	-0.0101	73.5	inactive
PSPC1	SID160743389	0.951	101	1.5	75.9	inactive
PSPC1	SID160743390	1.94	120	1.52	90.1	inactive
PSPC1	SID160743391	-0.256	76.8	-0.71	103	inactive
TMEM60	SID160753134	5.89	199	3.85	80.8	active
TMEM60	SID160753136	0.215	86.2	0.419	86.2	inactive
TMEM60	SID160753137	-0.436	73.2	0.794	66.4	inactive
CCDC66	SID160763573	1.14	105	1.53	78.1	inactive
CCDC66	SID160763574	-0.724	67.5	-0.841	94.1	inactive
CCDC66	SID160763575	0.152	84.9	-0.512	109	inactive
PCDHGC5	SID160744748	-0.19	78.1	-0.164	91.1	inactive
PCDHGC5	SID160744749	-0.193	78	-0.263	93.5	inactive
PCDHGC5	SID160744750	-0.223	77.5	0.0629	85.1	inactive
LRRC49	SID160742285	-0.02	81.5	0.00976	90.8	inactive
LRRC49	SID160742286	-0.766	66.7	-0.299	80.6	inactive
LRRC49	SID160742287	0.453	90.9	0.199	96.4	inactive
SH3BP1	SID160736683	0.716	96.1	0.372	97.4	inactive
SH3BP1	SID160736684	-0.445	73	0.161	78.2	inactive
SH3BP1	SID160736685	-0.918	63.6	-0.134	73.7	inactive
HBB	SID160774858	-2.25	37.2	-2.91	89.4	inactive
HBB	SID160774859	-0.855	64.9	-0.00847	72.7	inactive
HBB	SID160774860	-0.839	65.2	-0.555	84.3	inactive
PFDN4	SID160714146	0.703	95.9	0.825	86.2	inactive
PFDN4	SID160714147	0.546	92.7	1.1	77.5	inactive
PFDN4	SID160714148	1.27	107	1.84	73.8	inactive
PELP1	SID160738297	0.26	87.1	-0.431	109	inactive
PELP1	SID160738298	-0.372	74.5	-0.0503	84.4	inactive
PELP1	SID160738299	-0.8	66	-0.933	94.2	inactive

Just “total luciferase, z-score”, for 5 of the entries above:
HBB [SID160774859] = -0.855
HBB [SID160774860] = -0.839
PFDN4 [SID160714146] = 0.703
PFDN4 [SID160714147] = 0.546
PFDN4 [SID160714148] = 1.27
